Several values for one entry are separate records, joined by “and”; a condition that tells them apart may be missing. Equal values may be shown once. Where a name gives a salt, the structure may show the parent alone. The list shows a part of the results. Repeats in this data set agree poorly, so a single value says little.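 The cells were human embryonic kidney cells carrying a Renilla luciferase gene, driven by the HSV-TK promoter, on a plasmid put in briefly by transfection. This is the first-round screen of about ten thousand compounds, looking for ones that raise reporter output.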
System: HEK 293FT
Experiment: log relative Renilla luciferase luminescence (reporter expression vs reference, reference not stated) (log (base not stated)); higher = higher recombinant reporter expression
Settings: 10 µM; time after transfection 48 h

| SMILES | log |
| --- | --- |
| CCCCN1CCCC1CNC(=O)c1cc(C#N)c2ccccc2c1OC (configuration not stated) [Nafadotride] | 0.134 |
| CCN1CCC[C@H]1CNC(=O)c1c(O)c(Cl)cc(Cl)c1OC [Raclopride] | 0.114 |
| CS(=O)(=O)c1ccc(-c2cc(Br)sc2-c2ccc(F)cc2)cc1 | 0.0608 |
| CCN(CC)CC1CCCCN1CC(=O)N1c2ccccc2C(=O)Nc2cccnc21 (configuration not stated) | -0.274 |
| CN(C)CCCC1(c2ccc(F)cc2)OCc2cc(C#N)ccc21 (configuration not stated) [Citalopram hydrobromide] | -0.0971 |
| CN1CCc2cc(Cl)c(O)cc2[C@@H](c2ccccc2)C1 | 0.073 |
| NC(=O)OCC(COC(N)=O)c1ccccc1 [Felbamate] | -0.209 |
| c1cnc(N2CCN(Cc3ccc4c(c3)OCO4)CC2)nc1 [Piribedil] | 0.111 |
| COc1ccccc1OCCNCC(O)COc1cccc2[nH]c3ccccc3c12 (configuration not stated) [Carvedilol] | 0.0247 |
| CCN1CCCC1CNC(=O)c1cc(S(=O)(=O)CC)c(N)cc1OC (configuration not stated) [Amisulpride] | 0.258 |

System: HEK 293FT
Experiment: as above
Settings: 10 µM; time after transfection 48 h
Remark: another data set of the same source

| SMILES | log |
| --- | --- |
| COc1ccccc1N1CCN(CCCNc2cc(=O)n(C)c(=O)n2C)CC1 [Urapidil hydrochloride] | 0.0264 |
| CCCCCS(=O)(=O)CCCCCCCCCCn1c(-c2ccc(O)cc2)c(C)c2cc(O)ccc21 | 0.0486 |
| N[C@@H](Cn1ccc(=O)n(Cc2ccccc2C(=O)O)c1=O)C(=O)O | -0.0671 and 0.0683 |
| C=CCc1cccc(/C=N/NC(=O)CN2CCN(Cc3ccccc3)CC2)c1O | -0.551 |
| Nc1[nH]nc2nc3ccccc3nc12 | 0.132 |
| CC(C)Oc1ccc2c(=O)c3cc(C(=O)O)ccc3oc2c1 | 0.0801 |
| CCCCN1CCCC1CNC(=O)c1cc(C#N)c2ccccc2c1OC (configuration not stated) [Nafadotride] | -0.00108 |
| O=C(O)c1ccc2cc(-c3ccc(O)c(C45CC6CC(CC(C6)C4)C5)c3)ccc2c1 | 0.0876 |
| CC(C)NCCN(C(C)C)S(=O)(=O)c1ccc(Cl)cc1Cl | -0.111 |
| O=C(Nc1ccncc1)c1cc([N+](=O)[O-])ccc1Cl | -0.00861 |
| CN1Cc2c(C(=O)OC(C)(C)C)ncn2-c2ccsc2C1=O | 0.0837 |
| O=C(NC(NC(=S)Nc1ccc(F)c([N+](=O)[O-])c1)C(Cl)(Cl)Cl)C(c1ccccc1)c1ccccc1 (configuration not stated) | -0.0529 |
| CCN1CCC[C@H]1CNC(=O)c1c(O)c(Cl)cc(Cl)c1OC [Raclopride] | 0.116 |
| O=C1CN(/N=C/c2ccc(-c3ccc([N+](=O)[O-])cc3)o2)C(=O)N1 [Dantrolene, sodium salt] | -0.0428 |
| C/N=C(/NC#N)NCCSCc1csc(NC(=N)N)n1 [Tiotidine] | 0.204 |
| CS(=O)(=O)c1ccc(-c2cc(Br)sc2-c2ccc(F)cc2)cc1 | -0.614 |

| SMILES | log |
| --- | --- |
| CCN(CC)CC1CCCCN1CC(=O)N1c2ccccc2C(=O)Nc2cccnc21 (configuration not stated) | 0.035 |
| COc1nc(C)nc(Cl)c1NC1=NCCN1 [Moxonidine hydrochloride] | -0.28 |
| Cn1cc(/C=C2\C(=O)Nc3cccnc32)c2ccccc21 | 0.025 |
| CN(C)CCCC1(c2ccc(F)cc2)OCc2cc(C#N)ccc21 (configuration not stated) [Citalopram hydrobromide] | 0.024 |
| O=C1CCc2cc(OCCCCc3nnnn3C3CCCCC3)ccc2N1 [Cilostazol] | 0.0286 |
| c1ccc2oc(C3=NCCN3)cc2c1 [2-BFI hydrochloride] | 0.0628 |
| CCC1=C(C)CN(C(=O)NCCc2ccc(S(=O)(=O)NC(=O)N[C@H]3CC[C@H](C)CC3)cc2)C1=O [Glimepiride] | -0.126 |
| COCC(=O)O[C@]1(CCN(C)CCCc2nc3ccccc3[nH]2)CCc2cc(F)ccc2[C@@H]1C(C)C [Mibefradil dihydrochloride] | 0.00849 |
| O=C(O)c1ccc(-c2c[nH]c3ncc(-c4ccccc4)cc23)cc1C1CCCC1 | 0.0105 |
| O=C(O)COc1ccc(OCCNC[C@H](O)COc2ccccc2)cc1 [ICI 215,001 hydrochloride] | 0.072 |
| Cc1cccc(C)c1NC(=O)C[N+](C)(C)C | -0.141 |
| CC(C)NCC(O)COc1ccccc1-n1cccc1 (configuration not stated) [Isamoltane hemifumarate] | 0.0656 |
| CN1CCc2cc(Cl)c(O)cc2[C@@H](c2ccccc2)C1 | 0.0168 |
| O=C1c2ccccc2C(Cc2ccnc(F)c2)(Cc2ccnc(F)c2)c2ccccc21 | 0.0437 |
| NC(=O)OCC(COC(N)=O)c1ccccc1 [Felbamate] | 0.553 |
| O=[N+]([O-])c1ccccc1S(=O)(=O)NCC1CCC(CNCC2CCc3ccccc3C2)CC1 (configuration not stated) [NTNCB hydrochloride] | 0.0701 |

— the supplement of paper PMC7024190
